The results in this text go back to patent publication US20240270853A1 (Chugai, published 2024).

These are yes or no findings as the source states them, for the method shown. Some entries that bind do so weakly or less than the wild type.

This assay concerns the target T1, Discoidin domain (22-190) of mouse DDR2 (mouse) (UniProt Q62371).
T1 sequence: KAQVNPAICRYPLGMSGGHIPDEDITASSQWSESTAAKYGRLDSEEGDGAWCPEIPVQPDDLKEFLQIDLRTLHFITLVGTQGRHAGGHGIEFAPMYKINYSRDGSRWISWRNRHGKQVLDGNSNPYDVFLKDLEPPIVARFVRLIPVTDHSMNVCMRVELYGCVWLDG
Nature of the assay: X-ray crystal structure of the complex.

B1: Fab fragment of DAB0065 (Fab, V domains shown)
VH: QSVEESGGRLVTPGTPLTLTCTVSGFSLSTSAMSWVRQAPGKGLEWIGMITYGGSGSTWYASWANGRFTISKTSTTVTLKMTSPTTEDTASYFCARVYGTIGSNFYSIYSFNLWGQGTLVTVSS
VL: AAVLTQTPSPVSAAVGGTVSISCQSSKSVYNSNYLSWYQQKPGQPPKLLIYYTSALASGVSSRFKGSGSGTRFTLTISDVQCDDAATYYCAGGYSSSSDNGFGGGTKVEIK
On to B1, for which the binding entry is listed as “binds”.
